PMC9012282
These are yes or no findings as the source states them, for the method shown. Binding seen in cells or lysates may run through a third protein.

Biological target: p65, in 293T cells, Q04206
Assay: co-IP; exogenous WHSC1 in 293T cells; immunoblot of 293T cell immunoprecipitates
Conditions: remark: other sources report otherwise

- binding: no binding
B1: Wolf-Hirschhorn syndrome candidate 1 (WHSC1), exogenous, O96028 1-1365 (protein)
chain: MEFSIKQSPLSVQSVVKCIKMKQAPEILGSANGKTPSCEVNRECSVFLSKAQLSSSLQEGVMQKFNGHDALPFIPADKLKDLTSRVFNGEPGAHDAKLRFESQEMKGIGTPPNTTPIKNGSPEIKLKITKTYMNGKPLFESSICGDSAADVSQSEENGQKPENKARRNRKRSIKYDSLLEQGLVEAALVSKISSPSDKKIPAKKESCPNTGRDKDHLLKYNVGDLVWSKVSGYPWWPCMVSADPLLHSYTKLKGQKKSARQYHVQFFGDAPERAWIFEKSLVAFEGEGQFEKLCQESAKQAPTKAEKIKLLKPISGKLRAQWEMGIVQAEEAASMSVEERKAKFTFLYVGDQLHLNPQVAKEAGIAAESLGEMAESSGVSEEAAENPKSVREECIPMKRRRRAKLCSSAETLESHPDIGKSTPQKTAEADPRRGVGSPPGRKKTTVSMPRSRKGDAASQFLVFCQKHRDEVVAEHPDASGEEIEELLRSQWSLLSEKQRARYNTKFALVAPVQAEEDSGNVNGKKRNHTKRIQDPTEDAEAEDTPRKRLRTDKHSLRKRDTITDKTARTSSYKAMEAASSLKSQAATKNLSDACKPLKKRNRASTAASSALGFSKSSSPSASLTENEVSDSPGDEPSESPYESADETQTEVSVSSKKSERGVTAKKEYVCQLCEKPGSLLLCEGPCCGAFHLACLGLSRRPEGRFTCSECASGIHSCFVCKESKTDVKRCVVTQCGKFYHEACVKKYPLTVFESRGFRCPLHSCVSCHASNPSNPRPSKGKMMRCVRCPVAYHSGDACLAAGCSVIASNSIICTAHFTARKGKRHHAHVNVSWCFVCSKGGSLLCCESCPAAFHPDCLNIEMPDGSWFCNDCRAGKKLHFQDIIWVKLGNYRWWPAEVCHPKNVPPNIQKMKHEIGEFPVFFFGSKDYYWTHQARVFPYMEGDRGSRYQGVRGIGRVFKNALQEAEARFREIKLQREARETQESERKPPPYKHIKVNKPYGKVQIYTADISEIPKCNCKPTDENPCGFDSECLNRMLMFECHPQVCPAGEFCQNQCFTKRQYPETKIIKTDGKGWGLVAKRDIRKGEFVNEYVGELIDEEECMARIKHAHENDITHFYMLTIDKDRIIDAGPKGNYSRFMNHSCQPNCETLKWTVNGDTRVGLFAVCDIPAGTELTFNYNLDCLGNEKTVCRCGASNCSGFLGDRPKTSTTLSSEEKGKKTKKKTRRRRAKGEGKRQSEDECFRCGDGGQLVLCDRKFCTKAYHLSCLGLGKRPFGKWECPWHHCDVCGKPSTSFCHLCPNSFCKEHQDGTAFSCTPDGRSYCCEHDLGAASVRSTKTEKPPPEPGKPKGKRRRRRGWRRVTEGK
